# Where “and” joins values, the source holds several entries; their conditions need not be identical. Equal entries are not always repeated.
# Tested on: M. galloprovincialis plantigrade larvae
# Assay: Mussel plantigrade larvae settlement, 15 h acute exposure assay
# Assay type: in vivo
# Protocol: Mussel (M. galloprovincialis) adhesive larvae (plantigrades) were used to assess in vivo the antifouling activity of napyradiomycins (1–12) towards macrofouling. Juvenile mussel aggregates were collected at the intertidal rocky shore during low spring tides, at Memória beach, Matosinhos, Portugal (41°13′59″ N; 8°43′28″ W). At the laboratory, immediately before the bioassays, mussel plantigrade larvae were screened and isolated from the juvenile aggregates using a binocular microscope (Olympus SZX2-ILLT, Hamburg, Germany) and washed with filtered seawater to remove organic debris. Only competent plantigrade larvae (those showing foot exploratory behavior) were selected and used in the exposure bioassays following previously validated procedures. Plantigrades were exposed in 24-well polystyrene plates for 15 h in the darkness at 18 °C. DMSO was used as solvent for crude extracts, fractions and pure compounds stock and working solutions. Working solutions were prepared by successive dilutions of stock solutions in DMSO and then diluted in filtered seawater to obtain the test solutions. DMSO concentration in test solutions was always 0.1%. Four well replicates were used per condition with five larvae per well. Two negative controls, one with ultra-pure water and the other with DMSO 0.1% were included in all bioassays, as well as a positive control with 5 μM CuSO4 (a potent antifouling agent). Anti-settlement bioactivity was determined by the presence/absence of fixed byssal threads produced by each individual larvae for all the conditions tested. […] Chi-square Pearsons goodness-of-fit test was applied to data in order to determine EC50. Significance was considered at p < 0.01 for all analyses, and 95% lower and upper confidence limits [95% LCL; UCL] were presented. Therapeutic ratio (LC50/EC50) was used to evaluate the effectiveness vs. toxicity of compounds [19, 21].
structure (smiles),measurement,value
"CC(C)=CCCC(C)=CCC12OC(C)(C)C(Cl)CC1(Cl)C(=O)c1c(O)cc(O)cc1C2=O (centres unmarked) [Napyradiomycin 1, napyradiomycin A1]",LC50/EC50 (therapeutic ratio),18.3 and 18.32
"CC(=CCCC(C)=CCC12OC(C)(C)C(Cl)CC1(Cl)C(=O)c1c(O)cc(O)cc1C2=O)CO (centres unmarked) [Napyradiomycin 2, 18-hydroxynapyradiomycin A1]",LC50/EC50 (therapeutic ratio),6.00
"C=C(C)C(O)CC/C(C)=C/C[C@@]12OC(C)(C)[C@H](Cl)C[C@]1(Cl)C(=O)c1c(O)cc(O)cc1C2=O (some centres unmarked) [Napyradiomycin 4, napyradiomycin A2]",LC50/EC50 (therapeutic ratio),1.89
"Cc1c(O)cc2c(c1O)C(=O)C1(Cl)CC(Cl)C(C)(C)OC1(CC1C(C)(O)CCC(Cl)C1(C)C)C2=O (centres unmarked) [Napyradiomycin 10, napyradiomycin A80915C]",LC50/EC50 (therapeutic ratio),117.3 and 117.28
"C=C1CCC(Cl)C(C)(C)C1C[C@@]12OC(C)(C)[C@H](Cl)C=C1C(=O)c1c(cc(O)c(C)c1O)C2=O (some centres unmarked) [Napyradiomycin 12, 4-dehydro-4a-dechloro-napyradiomycin A80915A]",LC50/EC50 (therapeutic ratio),12.67

# Reference: paper PMC7024211, “Antifouling Napyradiomycins from Marine-Derived Actinomycetes Streptomyces aculeolatus” (Marine Drugs, 2020)
